Results taken from patent publication US10202391B2, “Chemical compounds” (AstraZeneca AB, priority 2015, dated 2019).
For part of these data: For at least one compound, name, drawing or mass did not settle the structure. Some of these results come from one statement about several compounds together.

Tests used:
MEK = MEK Autophosphorylation ADP-Glo Assay; format: biochemical; settings: ERK2 versus MEK Autophosphorylation ADP-Glo Assay
A549 xenograft = experiment: Tumour growth inhibition in A549 xenograft model; format: in vivo, mice; settings: selumetinib 25 mg/kg BiD or Example 18a 25 mg/kg QD, peroral, continuously for 3 weeks, relative to vehicle
Experimental: A549 is a human non small cell lung cancer line carrying an oncogenic mutation in the KRAS gene (G12S). Female nude mice (Harlan, UK) were implanted subcutaneously (s.c.) on the left flank, with 5×10^6 A549 cells (ATCC) per mouse.
Tumour growth was monitored by twice weekly calliper measurement and volumes calculated using elliptical formula (pi/6×width×width×length). Once tumours had reached a volume of ˜200-300 mm^3 animals were randomised into groups of 7-11 and were treated with a continuous combination schedule of selumetinib (ARRY-142886) 25 mg/kg BiD and Example 18a 25 mg/kg QD (four hours after first selumetinib dose), both were dosed by peroral route. Tumour volumes were measured twice weekly after dosing commenced.
Selumetinib was formulated in HPMC/Tween (0.5% Methocel [hydroxypropyl methocellulose]/0.1% Polysorbate 80), the suspension was stirred over night. Example 18a was formulated in 10% DMSO, 90% of a 40% kleptose solution (Kleptose is sourced from Roquette—Pharma [Trademarked] Hydroxypropyl betacyclodextrin—suitable for in-vivo use and formulations).
Studies were performed in the A549 xenograft model. Selumetinib was dosed twice daily (BiD) 8 hours apart and Example 18a was dosed once daily (QD) 4 hours after the first selumetinib dose. Both compounds were dosed continuously for 3 weeks. Both vehicles were dosed in the vehicle group.

Cc1cccc(CN2CCn3cc(-c4ccnc(Nc5ccnn5C)n4)nc3C2=O)n1 [Example 1, 2-(2-((1-Methyl-1H-pyrazol-5-yl)amino)pyrimidin-4-yl)-7-((6-methylpyridin-2-yl)methyl)-6,7-dihydroimidazo[1,2-a]pyrazin-8(5H)-one]
selectivity for ERK2 over MEK (MEK): at least 500 fold

C[C@H]1Cn2cc(-c3ccnc(Nc4ccnn4C)n3)nc2C(=O)N1Cc1cccc(Cl)c1 [Example 2, (S)-7-(3-Chlorobenzyl)-6-methyl-2-(2-((1-methyl-1H-pyrazol-5-yl)amino)pyrimidin-4-yl)-6,7-dihydroimidazo[1,2-a]pyrazin-8(5H)-one]
selectivity for ERK2 over MEK (MEK): at least 500 fold

C[C@H]1Cn2cc(-c3ccnc(Nc4ccnn4C)n3)nc2C(=O)N1Cc1ccc(F)c(Cl)c1 [Example 3, (S)-7-(3-Chloro-4-fluorobenzyl)-6-methyl-2-(2-((1-methyl-1H-pyrazol-5-yl)amino)pyrimidin-4-yl)-6,7-dihydroimidazo[1,2-a]pyrazin-8(5H)-one]
selectivity for ERK2 over MEK (MEK): at least 500 fold

C[C@H]1Cn2cc(-c3ccnc(Nc4ccnn4C)n3)nc2C(=O)N1Cc1ccc(F)c(F)c1 [Example 4, (S)-7-(3,4-Difluorobenzyl)-6-methyl-2-(2-((1-methyl-1H-pyrazol-5-yl)amino)pyrimidin-4-yl)-6,7-dihydroimidazo[1,2-a]pyrazin-8(5H)-one]
selectivity for ERK2 over MEK (MEK): at least 500 fold

C[C@H]1Cn2cc(-c3nc(Nc4ccnn4C)ncc3Cl)nc2C(=O)N1Cc1ccc(F)c(F)c1 [Example 6, (S)-2-(5-Chloro-2-((1-methyl-1H-pyrazol-5-yl)amino)pyrimidin-4-yl)-7-(3,4-difluorobenzyl)-6-methyl-6,7-dihydroimidazo[1,2-a]pyrazin-8(5H)-one]
selectivity for ERK2 over MEK (MEK): at least 500 fold

COc1cccc(CN2C(=O)c3nc(-c4nc(Nc5ccnn5C)ncc4Cl)cn3C[C@@H]2C)c1 [Example 7, (S)-2-(5-Chloro-2-((1-methyl-1H-pyrazol-5-yl)amino)pyrimidin-4-yl)-7-(3-methoxybenzyl)-6-methyl-6,7-dihydroimidazo[1,2-a]pyrazin-8(5H)-one]
selectivity for ERK2 over MEK (MEK): at least 500 fold

C[C@H]1Cn2cc(-c3nc(Nc4ccnn4C)ncc3Cl)nc2C(=O)N1Cc1cccc(C(F)F)n1 [Example 9, (S)-2-(5-Chloro-2-((1-methyl-1H-pyrazol-5-yl)amino)pyrimidin-4-yl)-7-((6-(difluoromethyl)pyridin-2-yl)methyl)-6-methyl-6,7-dihydroimidazo[1,2-a]pyrazin-8(5H)-one]
selectivity for ERK2 over MEK (MEK): at least 500 fold

C[C@H]1Cn2cc(-c3nc(Nc4ccnn4C)ncc3Cl)nc2C(=O)N1Cc1cccc(C(F)(F)F)n1 [Example 10]
selectivity for ERK2 over MEK (MEK): at least 500 fold

Cc1cccc(CN2C(=O)c3nc(-c4nc(Nc5ccnn5C)ncc4Cl)cn3C[C@@H]2C)n1 [Example 11, (S)-2-(5-chloro-2-((1-methyl-1H-pyrazol-5-yl)amino)pyrimidin-4-yl)-6-methyl-7-((6-methylpyridin-2-yl)methyl)-6,7-dihydroimidazo[1,2-a]pyrazin-8(5H)-one]
selectivity for ERK2 over MEK (MEK): at least 500 fold

COC[C@H]1Cn2cc(-c3nc(Nc4ccnn4C)ncc3C)nc2C(=O)N1Cc1cccc(C(F)F)n1 [Example 16, (R)-7-((6-(Difluoromethyl)pyridin-2-yl)methyl)-6-(methoxymethyl)-2-(5-methyl-2-((1-methyl-1H-pyrazol-5-yl)amino)pyrimidin-4-yl)-6,7-dihydroimidazo[1,2-a]pyrazin-8(5H)-one]
selectivity for ERK2 over MEK (MEK): at least 500 fold

COC[C@H]1Cn2cc(-c3nc(Nc4ccnn4C)ncc3C)nc2C(=O)N1Cc1cccc(Cl)c1 [Example 17, (R)-7-(3-Chlorobenzyl)-6-(methoxymethyl)-2-(5-methyl-2-((1-methyl-1H-pyrazol-5-yl)amino)pyrimidin-4-yl)-6,7-dihydroimidazo[1,2-a]pyrazin-8(5H)-one]
selectivity for ERK2 over MEK (MEK): at least 500 fold

Cc1cnc(Nc2ccnn2C)nc1-c1cn2c(n1)C(=O)N(Cc1cccc(Cl)c1)[C@@H](C)C2 [Example 19, (S)-7-(3-Chlorobenzyl)-6-methyl-2-(5-methyl-2-((1-methyl-1H-pyrazol-5-yl)amino)pyrimidin-4-yl)-6,7-dihydroimidazo[1,2-a]pyrazin-8(5H)-one]
selectivity for ERK2 over MEK (MEK): at least 500 fold

Cc1cnc(Nc2ccnn2C)nc1-c1cn2c(n1)C(=O)N(Cc1cccc(C(F)F)c1)[C@@H](C)C2 [Example 21, (S)-7-(3-(Difluoromethyl)benzyl)-6-methyl-2-(5-methyl-2-((1-methyl-1H-pyrazol-5-yl)amino)pyrimidin-4-yl)-6,7-dihydroimidazo[1,2-a]pyrazin-8(5H)-one]
selectivity for ERK2 over MEK (MEK): at least 500 fold

Cc1cnc(Nc2ccnn2C)nc1-c1cn2c(n1)C(=O)N(Cc1cc(F)cc(F)c1)[C@@H](C)C2 [Example 22, (S)-7-(3,5-Difluorobenzyl)-6-methyl-2-(5-methyl-2-((1-methyl-1H-pyrazol-5-L)amino)pyrimidin-4-yl)-6,7-dihydroimidazo[1,2-a]pyrazin-8(5H)-one]
selectivity for ERK2 over MEK (MEK): at least 500 fold

COc1cccc(CN2C(=O)c3nc(-c4nc(Nc5ccnn5C)ncc4C)cn3C[C@@H]2C)c1 [Example 23, (S)-7-(3-Methoxybenzyl)-6-methyl-2-(5-methyl-2-((1-methyl-1H-pyrazol-5-yl)amino)pyrimidin-4-yl)-6,7-dihydroimidazo[1,2-a]pyrazin-8(5H)-one]
selectivity for ERK2 over MEK (MEK): at least 500 fold

COc1cc(CN2C(=O)c3nc(-c4nc(Nc5ccnn5C)ncc4C)cn3C[C@@H]2C)ccc1F [Example 24, (S)-7-(4-Fluoro-3-methoxybenzyl)-6-methyl-2-(5-methyl-2-((1-methyl-1H-pyrazol-5-yl)amino)pyrimidin-4-yl)-6,7-dihydroimidazo[1,2-a]pyrazin-8(5H)-one]
selectivity for ERK2 over MEK (MEK): at least 500 fold

Cc1cnc(Nc2ccnn2C)nc1-c1cn2c(n1)C(=O)N(Cc1cccc(C(F)F)n1)[C@@H](C)C2 [Example 25, (S)-7-((6-(Difluoromethyl)pyridin-2-yl)methyl)-6-methyl-2-(5-methyl-2-((1-methyl-1H-pyrazol-5-yl)amino)pyrimidin-4-yl)-6,7-dihydroimidazo[1,2-a]pyrazin-8(5H)-one]
selectivity for ERK2 over MEK (MEK): at least 500 fold

Cc1cnc(Nc2ccnn2C)nc1-c1cn2c(n1)C(=O)N(Cc1ccnc(C(F)(F)F)n1)[C@@H](C)C2 [Example 26, (S)-6-methyl-2-(5-methyl-2-((1-methyl-1H-pyrazol-5-yl)amino)pyrimidin-4-yl)-7-((2-(trifluoromethyl)pyrimidin-4-yl)methyl)-6,7-dihydroimidazo[1,2-a]pyrazin-8(5H)-one]
selectivity for ERK2 over MEK (MEK): at least 500 fold

Cc1cnc(Nc2ccnn2C)nc1-c1cn2c(n1)C(=O)N(Cc1cccc(C(F)(F)F)n1)[C@@H](C)C2 [Example 27, (S)-6-Methyl-2-(5-methyl-2-((1-methyl-1H-pyrazol-5-yl)amino)pyrimidin-4-yl)-7-((6-(trifluoromethyl)pyridin-2-yl)methyl)-6,7-dihydroimidazo[1,2-a]pyrazin-8(5H)-one]
selectivity for ERK2 over MEK (MEK): at least 500 fold

Cc1cnc(Nc2ccnn2C)nc1-c1cn2c(n1)C(=O)N(Cc1cccc(OC(F)F)c1)[C@@H](C)C2 [Example 28, (S)-7-(3-(Difluoromethoxy)benzyl)-6-methyl-2-(5-methyl-2-((1-methyl-1H-pyrazol-5-yl)amino)pyrimidin-4-yl)-6,7-dihydroimidazo[1,2-a]pyrazin-8(5H)-one]
selectivity for ERK2 over MEK (MEK): at least 500 fold

Cn1cnc2c(F)c(Nc3ccc(Br)cc3Cl)c(C(=O)NOCCO)cc21 [selumetinib, reference compound]
tumour growth, single agent (A549 xenograft): reduced tumour growth relative to vehicle only control
